Measurements reported in PubChem BioAssay AID602196 (INSERM, 2012).

Aim: 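Knock-downs that protect lung cancer cells from cisplatin or sensitise them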
Cell system: human A549 lung cancer cells
Reagent: siRNA pair against human genes
Time to read-out: 48 h transfection before cisplatin; time from cisplatin to read-out not stated
Treatment: cisplatin at a dose killing half of control-siRNA cells; exact dose and duration not given
Measured: 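Cisplatin cell death as a shift from the 50% death seen with control siRNA; siRNAs toxic or growth-blocking alone scored 0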
Direction: two-siRNA summed score (-2 to +2): higher = both siRNAs protect from cisplatin killing; -2 means both sensitise; mean protection from cisplatin (shift in death): higher = protection from cisplatin killing
Active means: 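siRNAs harmful alone (LDH or WST-1) get 0; others get +1 for less and -1 for more cisplatin killing; genes are active when the two siRNAs give the same sign, summing to ±2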
Calls: active = both siRNAs shift cisplatin killing the same way; inactive = no consistent shift, or siRNA harmful alone
In all, the deposit lists about 23,000 reagents; shown is a part drawn at random. 455 of them (2%) count as active. 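Active includes both protection and sensitisation; some change values fall well beyond the stated -50 to +50 range.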 Entries without a mark were called inactive. Further read-outs or replicates are left out here. Not given: the amount of reagent.

BCKDHA
- two-siRNA summed score (-2 to +2): 0
- mean protection from cisplatin (shift in death) (%): 3.3

JPH1
- two-siRNA summed score (-2 to +2): 0
- mean protection from cisplatin (shift in death) (%): 8.2

OAT
- two-siRNA summed score (-2 to +2): 1
- mean protection from cisplatin (shift in death) (%): 15.2

PCDH19
- two-siRNA summed score (-2 to +2): 1
- mean protection from cisplatin (shift in death) (%): 11

MITD1
- two-siRNA summed score (-2 to +2): 1
- mean protection from cisplatin (shift in death) (%): 4.5

NUP85
- two-siRNA summed score (-2 to +2): 0
- mean protection from cisplatin (shift in death) (%): 7.2

OPN1MW
- two-siRNA summed score (-2 to +2): 1
- mean protection from cisplatin (shift in death) (%): 11.1

DHX37
- two-siRNA summed score (-2 to +2): 0
- mean protection from cisplatin (shift in death) (%): -3.5

LOC387894
- two-siRNA summed score (-2 to +2): 0
- mean protection from cisplatin (shift in death) (%): -3

DENND1C
- two-siRNA summed score (-2 to +2): 0
- mean protection from cisplatin (shift in death) (%): -8.7

Next part, starting with the last 2 of the part before.
LOC387894
- two-siRNA summed score (-2 to +2): 0
- mean protection from cisplatin (shift in death) (%): -3

DENND1C
- two-siRNA summed score (-2 to +2): 0
- mean protection from cisplatin (shift in death) (%): -8.7

IL22
- two-siRNA summed score (-2 to +2): 0
- mean protection from cisplatin (shift in death) (%): 5.1

ZKSCAN8
- two-siRNA summed score (-2 to +2): 1
- mean protection from cisplatin (shift in death) (%): 16.7

LOC129881
- two-siRNA summed score (-2 to +2): 0
- mean protection from cisplatin (shift in death) (%): 16

LOC203413
- two-siRNA summed score (-2 to +2): 0
- mean protection from cisplatin (shift in death) (%): 3

LOC441310
- two-siRNA summed score (-2 to +2): 1
- mean protection from cisplatin (shift in death) (%): 17.8

MYT1
- two-siRNA summed score (-2 to +2): 0
- mean protection from cisplatin (shift in death) (%): -7.1

RPS6KA5
- two-siRNA summed score (-2 to +2): 0
- mean protection from cisplatin (shift in death) (%): -1.7

LOC440339
- two-siRNA summed score (-2 to +2): 0
- mean protection from cisplatin (shift in death) (%): 17.1

NME7
- two-siRNA summed score (-2 to +2): 0
- mean protection from cisplatin (shift in death) (%): 7.5

PLEKHO2
- two-siRNA summed score (-2 to +2): 0
- mean protection from cisplatin (shift in death) (%): -6.8

SCAP
- two-siRNA summed score (-2 to +2): 0
- mean protection from cisplatin (shift in death) (%): -18
